From US20220372132A1 (SG MEDICAL, published 2022)
No constants are given. Whether binding was seen depends on the method and setting. Some binding calls cover weakened binding; strength is not graded here.

By UniProt entry, the sequences of proteins in these tests, tags left out. Residues count along the entry.
UniProt P09055, residues 21-728: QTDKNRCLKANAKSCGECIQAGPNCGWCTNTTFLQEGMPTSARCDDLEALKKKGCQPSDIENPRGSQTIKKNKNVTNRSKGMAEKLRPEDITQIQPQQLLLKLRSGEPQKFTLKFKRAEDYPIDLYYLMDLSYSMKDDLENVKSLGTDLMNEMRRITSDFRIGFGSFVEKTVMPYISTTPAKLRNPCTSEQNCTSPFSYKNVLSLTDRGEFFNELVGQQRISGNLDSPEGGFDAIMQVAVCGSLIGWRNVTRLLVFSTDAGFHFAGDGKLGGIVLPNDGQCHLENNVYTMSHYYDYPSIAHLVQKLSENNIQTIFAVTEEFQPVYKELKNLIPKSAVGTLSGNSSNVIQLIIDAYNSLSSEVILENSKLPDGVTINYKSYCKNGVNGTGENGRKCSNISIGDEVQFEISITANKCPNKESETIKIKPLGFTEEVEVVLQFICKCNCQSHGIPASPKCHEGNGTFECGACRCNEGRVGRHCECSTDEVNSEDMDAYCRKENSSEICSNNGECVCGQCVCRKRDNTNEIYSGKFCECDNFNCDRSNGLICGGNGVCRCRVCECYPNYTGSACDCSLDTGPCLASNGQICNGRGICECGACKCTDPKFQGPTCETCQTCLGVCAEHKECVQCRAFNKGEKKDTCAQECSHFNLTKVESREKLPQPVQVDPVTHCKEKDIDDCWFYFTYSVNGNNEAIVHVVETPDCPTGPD

Target: recombinant mouse beta 1 integrin (MyBioSource, USA) (mouse) (UniProt P09055)
Assay: direct ELISA, antigen coated at 1 µg/ml, HRP-labeled antibody

B1: monoclonal antibody GP5 (antibody, human IgG1, V domains shown)
VH: QVQLQQSGSELMKPGASVKVSCKASGYTFTNYWIEWIVQRPGHGLEWIGEILPGSVNTNYNAKFKDRATFTADTSTDTASMELSSLTSEDSAVYYCALATPYYALDSWGQGTSVTVSS
VL: DIVMTQAAPSLSVTPGESVSISCRSTESLLHSNGNTYLYWYLQKPGQSPQLLIYRMSNRASGVPDRFSGSGSGTAFTLKIRRVEAEDVGVYYCMQHLEYPFTFGAGTKLELK
notes: Full IgG made in HEK293F cells; The humanized VH is joined to a human IgG1 heavy chain constant region (CH1, CH2, CH3) and the VL to a human Ckappa; also called humanized antibody GP5; modified monoclonal antibody (GP5)
**Q.** How did the binding turn out when B1 was run?
**A.** binds
